Reference: patent publication US8828419B2, “Bioabsorbable device having encapsulated additives for accelerating degradation” (Cordis Corporation, priority 2006, dated 2014)
For at least one compound, name, drawing or mass did not settle the structure.

Key:
[1] = test system: rabbit model; assay: Neointimal hyperplasia after rapamycin release from drug eluting stents, rabbit model; format: in vivo; conditions: 35-430 ug/15-18 mm coronary stent, maximal at about twenty-eight to thirty days
[2] = test system: patients; assay: In-stent neointimal hyperplasia, late lumen loss and plaque volume in humans receiving rapamycin from a stent; format: in vivo, human
[3] = test system: porcine model; assay: Neointimal hyperplasia after rapamycin release from drug eluting stents, porcine model; format: in vivo
[4] = test system: monocyte chemotactic protein (MCP-1); assay: Cytokine (MCP-1) levels in vascular tissue with rapamycin delivered from a stent; format: in vivo

## CO[C@H]1C[C@@H]2CC[C@@H](C)[C@@](O)(O2)C(=O)C(=O)N2CCCC[C@H]2C(=O)O[C@H]([C@H](C)C[C@@H]2CC[C@@H](O)[C@H](OC)C2)CC(=O)[C@H](C)/C=C(\C)[C@@H](O)[C@@H](OC)C(=O)[C@H](C)C[C@H](C)/C=C/C=C/C=C/1C [rapamycin]
[1]
  Peak reduction in neointimal hyperplasia: fifty to fifty-five
[2]; humans, delivered from a stent
  Reduction in in-stent neointimal hyperplasia: profound reduction in in-stent neointimal hyperplasia that is sustained for at least one year
[2]; patients, rapamycin delivered locally from a stent
  Late lumen loss and neointimal plaque volume: Dramatic and sustained reductions
[3]; 35-430 ug/15-18 mm coronary stent, maximal at about twenty-eight to thirty days
  Peak reduction in neointimal hyperplasia: fifty to fifty-five
[3]; ninety to one hundred eighty days
  Persistence of the reduction in neointimal hyperplasia: typically not sustained
[4]
  Reduction of MCP-1 levels in the vascular wall: highly effective
